# Source: the supplement of paper PMC10735217
# Counter-ions that a name gives are not always drawn. Some of the results follow. Repeats in this data set agree poorly, so a single value says little.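 The human kidney-derived cells carry a stably integrated construct of eight TEAD-binding elements driving luciferase, read by luminescence in a drug-repurposing library screen. A compound counts as a hit when its signal is more than five robust Z scores above the plate mean.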
# Test system: HEK293A TEAD-LUC reporter
# Assay: TEAD-luciferase reporter activity (YAP activation), robust Z score vs plate; higher = stronger YAP/TEAD activation
# Settings: 24 h
Compound,TEAD-luciferase reporter activity (compound concentration: 200 nM),TEAD-luciferase reporter activity (compound concentration: 2 uM),TEAD-luciferase reporter activity (compound concentration: 10 uM)
CC(=O)[C@@]12O[C@](C)(c3ccccc3)O[C@@H]1CC1C3CCC4=CC(=O)CC[C@]4(C)C3CC[C@@]12C (stereo partly specified),inactive: -1.43,inactive: -0.46,inactive: 1.83
Nc1ncnc2c1ncn2CC(CF)OCP(=O)(O)O (stereo unspecified),inactive: -0.955,inactive: 0.15,inactive: 0.312
CC[C@@H]1/C=C(\C)C[C@H](C)C[C@H](OC)[C@H]2O[C@@](O)(C(=O)C(=O)N3CCCC[C@H]3C(=O)O[C@H](/C(C)=C/[C@@H]3CC[C@H](Cl)[C@H](OC)C3)[C@H](C)[C@@H](O)CC1=O)[C@H](C)C[C@@H]2OC [Pimecrolimus],inactive: -0.495,inactive: 0.725,inactive: 0.479
COc1ccc2cc(-c3ccc(OCC(O)CNC(C)(C)C)cc3)n(C)c(=O)c2c1 (stereo unspecified) [draquinolol],inactive: -0.497,inactive: 0.333,inactive: 4.37
CC(C)(C)NCC(O)COc1cccc2c1CCC(=O)N2 (stereo unspecified) [Carteolol hydrochloride],inactive: -0.494,inactive: -0.494,inactive: 2.62
N=C(NN)N(N)CC(=O)O,inactive: -1.13,–,inactive: 0.324
C[N+](C)(C)CCOC(=O)CCCC[C@@H]1CCSS1 [alpha-Lipoic acid choline ester],inactive: -2.08,inactive: -0.895,inactive: -0.566
O=c1c2c([nH]c3ccccc13)[C@@H](c1ccc3c(c1)CCO3)N(c1ncc(-c3ccccn3)cn1)C2,inactive: -0.931,inactive: 0.753,inactive: 0.124
CCN(CC)Cc1cc(Nc2ccnc3cc(Cl)ccc23)ccc1O [Amodiaquine],inactive: 1.01,inactive: -0.898,inactive: 0.396
CN1CCC/C1=N\C(=N\c1ccccc1)N1CCOCC1 [Linogliride],inactive: -0.269,inactive: -1.09,inactive: 2.35
N#Cc1c(N2C[C@@H]3NCCO[C@H]3C2)c(F)cc2c(=O)c(C(=O)O)cn(C3CC3)c12 [Finafloxacin hydrochloride],inactive: -1.19,inactive: -0.724,inactive: -1.91
CCN(Cc1cccnc1)C(=O)c1ccc(Cl)c([C@]2(C)C(=O)N(Cc3ccc(OC)cc3OC)c3ccc(Cl)cc32)c1,inactive: -1.7,inactive: -1.17,inactive: -0.934
CN1C(=O)CC[C@H]1C(=O)NCc1cccc(C(F)(F)F)c1Cl,inactive: 0.228,inactive: -0.763,inactive: 0.0356
C[N+](C)(C)CCOC(=O)CCC(=O)OCC[N+](C)(C)C [Suxamethonium chloride],inactive: -2.74,inactive: -0.703,inactive: -1.27
COc1cccc(-c2ccc(CN3CCCC(NC(=O)c4ccc(Cl)cc4)C3)cc2)c1 (stereo unspecified),inactive: 1.98,–,inactive: -0.142
O=C(C1CCCN(c2nc3ncccc3o2)C1)N1CCCC1 (stereo unspecified),inactive: 0.12,–,inactive: -0.873
Cc1ccc(C(=O)C(C)CN2CCCC2)cc1 (stereo unspecified),inactive: -0.367,inactive: 2.57,inactive: -1.44
Cc1ccc2c(c1)CC(=O)c1cc(C(C)C(=O)O)ccc1O2 (stereo unspecified) [Bermoprofen],inactive: 0.00202,inactive: 3.75,inactive: 0.81

# Looked up one by one from above (two):
Compound,TEAD-luciferase reporter activity (compound concentration: 200 nM),TEAD-luciferase reporter activity (compound concentration: 2 uM),TEAD-luciferase reporter activity (compound concentration: 10 uM)
COc1ccc2cc(-c3ccc(OCC(O)CNC(C)(C)C)cc3)n(C)c(=O)c2c1 (stereo unspecified) [draquinolol],inactive: -0.497,inactive: 0.333,inactive: 4.37
CN1C(=O)CC[C@H]1C(=O)NCc1cccc(C(F)(F)F)c1Cl,inactive: 0.228,inactive: -0.763,inactive: 0.0356

# Next part.

Compound,TEAD-luciferase reporter activity (compound concentration: 200 nM),TEAD-luciferase reporter activity (compound concentration: 2 uM),TEAD-luciferase reporter activity (compound concentration: 10 uM)
CCN(CC)c1ccc(C(=C2C=CC(=[N+](CC)CC)C=C2)c2ccc(S(=O)(=O)[O-])cc2S(=O)(=O)[O-])cc1,inactive: -0.146,inactive: -0.675,inactive: -0.87
O=C(/C=C/c1cccc(S(=O)(=O)Nc2ccccc2)c1)NO [Belinostat (PXD101)],inactive: 1.87,–,active: 22.1
O=C(/C=C/c1cccc(S(=O)(=O)Nc2ccccc2)c1)NO [belinostat],–,active: 9.73,–
COc1ccc(-n2[nH]c3c4c(ncc3c2=O)CCCCC4)cc1,inactive: -1.45,inactive: -2.31,inactive: 2.98
COCCNCC(O)COc1ccc2c(c1)CCC(=O)N2 (stereo unspecified),inactive: 0.329,inactive: -0.263,inactive: 3.73
OCCOCCOc1ccc(/C(=C(\CCCl)c2ccccc2)c2ccccc2)cc1,inactive: -2.41,inactive: -0.673,inactive: 1.42
COCCNCc1ccc(-c2cc3nccc(Oc4ccc(NC(=O)C5(C(=O)Nc6ccc(F)cc6)CC5)cc4F)c3s2)nc1,inactive: -1.19,inactive: -2.63,inactive: 0.851
COc1ccc(/C=C/CCCCOc2cccc(OCCCCC(=O)O)c2CCC(=O)O)cc1,inactive: -0.341,inactive: -1.49,inactive: -0.244
CN(C)CCc1c[nH]c2ccc(CS(=O)(=O)N3CCCC3)cc12 [Almotriptan Malate],inactive: -0.0981,inactive: -0.905,inactive: -0.914
O=C(N[C@H]1CCS[C@H]2CCC[C@@H](C(=O)O)N2C1=O)[C@H](S)Cc1ccccc1 [Omapatrilat],inactive: -0.779,inactive: -0.933,inactive: 0.0277
Cc1cc(=O)n(-c2ccccc2)n1C [Phenazone],inactive: -1.71,inactive: 1.08,inactive: 1.67
CCc1c(C(=O)c2cc(C)cc(C)c2)n(CC2CC=CC2)c(=O)[nH]c1=O,inactive: -0.304,inactive: 0.179,inactive: -1.02
CC(C)OC(=O)CCC/C=C\C[C@@H]1[C@@H](CC[C@@H](O)CCc2ccccc2)[C@H](O)C[C@@H]1O,inactive: -1.28,inactive: -1.12,inactive: 1.54
O=C(O)c1cccnc1 [Nicotinic Acid59-67-6],inactive: -0.536,–,inactive: 2.72
"O=C(O)c1cccnc1 [niacin, controlled-release]",–,inactive: -1.35,–
CC(C)=CCc1ccc(C(C)C(=O)O)cc1 (stereo unspecified),inactive: -0.172,inactive: 3.1,inactive: 1.94
CS(=O)(=O)c1ccc(C(=O)N2CCN(c3ccc(OC4CCN(C5CCC5)CC4)cc3)CC2)cc1,inactive: -1.2,inactive: -1.08,inactive: -1.13
